# Assay results taken from PubChem BioAssay AID504444 (National Center for Advancing Translational Sciences (NCATS), 2011).
# Among all 360,000 compounds or so, about 7,500 (2.1%) were called active. Inconclusive results, whose numbers are uncertain, are shown with a selection of clear calls. Calls follow the shape of the dose curve; as a rule, active = well fitted inhibition curve with a large enough effect; inconclusive = small, poorly fitted or top-dose-only effect, or effect the other way; inactive = flat fitted curve, though single readings scatter. A potency beside an inconclusive call is a rough fit, not a confirmed value.
# Assay: Nrf2 qHTS screen for inhibitors; also: nearly all actives have a fitted effect of over 60% in size
# Conditions: A549 ARE-Fluc reporter, luciferase luminescence, 18-24 h; series mostly up to 46 µM
# How it was run: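 Nrf2 activity is the BugLite luminescence, read 15 min after reagent at room temperature, following CellTiter-Fluor cytotoxicity readout (30 min, 37C). Compound titrations were applied for 18-24 h to 5000 A549 ARE_Fluc cells/well in 5% FBS OPTI-MEM.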
# Potency is read from the fitted curve at half-maximal effect.
row,SMILES,Potency
1,COc1cc(NC(=O)c2cccs2)c(C(=O)OCC(=O)NC(=O)NCc2ccccc2)cc1OC,"inconclusive: 29.1 µM [falling, single point]"
2,O=S(=O)(c1cccc(Br)c1)N1CCN(c2ncnc3scc(-c4ccccc4)c23)CC1,inactive
3,CCc1cc2c(=O)c(Oc3ccccc3)c(C)oc2cc1O,inactive
4,COc1ccccc1N1CCN(C(CNC(=O)C2CCCCC2)c2cccnc2)CC1 (centres undefined),"inconclusive: 23.1 µM [falling, single point]"
5,Clc1ccc2nc(-c3ccccc3)nc(C(Cl)Cl)c2c1,"inconclusive: 2.31 µM [falling, full curve, poor fit]"
6,O=c1c2c3c(sc2nnn1Cc1ccc(Br)cc1)CCCC3,inactive
7,CCOc1ccccc1N(CC(=O)Nc1ccc(S(=O)(=O)N2CCOCC2)cc1)S(C)(=O)=O,"inconclusive: 25.9 µM [falling, single point]"
8,Cc1cc(C)c(C#N)c(Nc2cccc(C)c2C)n1,"inconclusive: 1.16 µM [activator, partial curve, poor fit]"
9,COc1ccc(Cc2nc3ccc(C(=O)NC(C)Cc4ncccc4C)cc3o2)cc1OC (centres undefined),"inconclusive: 32.6 µM [falling, single point]"
10,O=C(CN(C(=O)c1csnn1)c1ccc(Br)cc1)NC1CCCC1,"inconclusive: 32.6 µM [activator, single point]"
11,Nc1nnnn1/N=C/c1ccccc1OCc1ccccc1,"inconclusive: 13 µM [falling, partial curve]"
12,Cc1cc(NC(=O)c2noc3c2CCCC3)no1,"inconclusive: 14.6 µM [activator, partial curve, poor fit]"
13,CCc1cc(CNC(=O)c2cc(COc3ccc(C)nc3)on2)on1,"inconclusive: 4.61 µM [activator, full curve]"
14,COC(=O)c1c(NC(=O)COC(=O)CNC(=O)c2ccco2)sc(C)c1C,"inconclusive: 32.6 µM [falling, partial curve, poor fit]"
15,O=C(CN1C(=O)/C(=C/c2ccccc2F)Oc2ccccc21)N1CCN(c2ccccn2)CC1,inactive
16,CC1CC(C)CN(S(=O)(=O)c2ccc(Oc3ccc([N+](=O)[O-])cc3)cc2)C1 (centres undefined),active: 23.1 µM
17,O=C(C1COc2ccccc2O1)N1CCN(c2ccc([N+](=O)[O-])cc2)CC1 (centres undefined),"inconclusive: 20.6 µM [falling, single point]"
18,COc1ccccc1NC(=O)Nc1ccc(N2CCOCC2)cc1,"inconclusive: 18.4 µM [activator, partial curve]"
19,CC(C)(C)c1ccc(OCC(=O)NCC(c2cccs2)N2CCOCC2)cc1 (centres undefined),"inconclusive: 29.1 µM [falling, single point]"

# Ordered by count of non-hydrogen atoms (low to high): 5 of the compounds above.
row,SMILES,Potency
8,Cc1cc(C)c(C#N)c(Nc2cccc(C)c2C)n1,"inconclusive: 1.16 µM [activator, partial curve, poor fit]"
18,COc1ccccc1NC(=O)Nc1ccc(N2CCOCC2)cc1,"inconclusive: 18.4 µM [activator, partial curve]"
14,COC(=O)c1c(NC(=O)COC(=O)CNC(=O)c2ccco2)sc(C)c1C,"inconclusive: 32.6 µM [falling, partial curve, poor fit]"
4,COc1ccccc1N1CCN(C(CNC(=O)C2CCCCC2)c2cccnc2)CC1 (centres undefined),"inconclusive: 23.1 µM [falling, single point]"
15,O=C(CN1C(=O)/C(=C/c2ccccc2F)Oc2ccccc21)N1CCN(c2ccccn2)CC1,inactive
